Assay results from PubChem BioAssay AID590 (National Center for Advancing Translational Sciences (NCATS), 2007).
Where “and” joins values, the source holds several entries; their conditions need not be identical. Equal values may be shown once. Hit rate of the full screen: of about 59,000 compounds, about 6,500 (11%) were called active. This list was built around the results that the source calls inconclusive (neither active nor inactive); the mix of calls is not that of the screen. No stated cut-off is given here; in the data, active means max dye-equivalent concentration above about 10 nM; inconclusive means mostly about 1.1 nM to 9.6 nM; inactive means weaker than that.

Test: qHTS Assay for Spectroscopic Profiling in A350 Spectral Region
Conditions: Compound autofluorescence, 340/450 nm, Alexa 350 dye-equivalents; stronger effect = higher value

| Structure (SMILES) | max dye-equivalent concentration |
| --- | --- |
| C=C(C)c1ccccc1 (tested in a mixture with another compound) | inconclusive: 3.1e-09 M |
| C[C@@H]1[C@@H](C)N1C[C@H](O)Cn1ccnc1[N+](=O)[O-] (stereo partly specified) | inactive |
| CC(C)OC(=O)c1c(N)n(CC2CCCO2)c2nc3ccccc3nc12 (stereo unspecified) | active: 1.1e-05 M |
| CN1CCc2cccc(Cl)c2CC1 | inactive |
| C[C@H]1CC[C@@H]2[C@@H](C)C(=O)O[C@H]3O[C@@]4(C)CC[C@H]1[C@@]32OO4 | inactive |
| O=c1[nH]cnc2[nH]cc(CN3CCCCC3)c12 | inconclusive: 6.8e-09 M |
| CC(C)n1cc(C(=O)N(CC(=O)NC2CCCC2)Cc2ccccc2)cn1 | inconclusive: 2.4e-09 M |
| CCOC(=O)N1CCC(NC(=O)CCc2nc(C3=CCN(C)CC3)no2)CC1 | inconclusive: 2.5e-09 M |
| Nc1ccccc1N=Cc1c(O)n(CCC2=CCCCC2)c(=O)[nH]c1=O | inconclusive: 8.1e-09 M |
| Cc1cccc(NC(=O)CSc2nnc([C@@H](N)Cc3c[nH]c4ccccc34)o2)c1C | inconclusive: 1.6e-09 M |
| CCCN1C2CCCC1CC(NC(C)=O)C2 (stereo unspecified) | inconclusive: 1.1e-09 M |
| CC(C)(C)C(O)C(Oc1ccc(Cl)cc1)n1cncn1 (stereo unspecified) | inconclusive: 3e-09 M |
| c1cncc(C2CC(c3cccs3)n3ncnc3N2)c1 (stereo unspecified) | inconclusive: 3.8e-09 M |
| O=c1c2ccccc2[se]n1-c1ccccc1 | inconclusive: 2.1e-09 M |
| C/C=C(\C)C(=O)O[C@@H]1C(C)=C2[C@H]([C@@H]1OC(=O)CCCCCCC)[C@@](C)(OC(C)=O)C[C@@H](OC(=O)CCC)[C@@]1(O)[C@H]2OC(=O)[C@]1(C)O | inactive |
| N[C@@H](Cc1c[nH]c2ccccc12)c1nnc(SCc2c(F)cccc2Cl)o1 | inactive |
| CCOC(=O)c1ccc2[nH]c(-c3ccc(S(=O)(=O)F)cc3)cc(=O)c2c1 | active: 3.1e-08 M |
| CN1C(=O)N(C)C(=O)C2(Cc3c(nc4ccccn4c3=O)N3CCc4ccccc4C32)C1=O (stereo unspecified) | active: 1.4e-08 M |
| COc1cccc2c1C(=O)c1c(O)c3c(c(O)c1C2=O)C[C@](O)(/C(C)=N\O)C[C@@H]3O[C@H]1C[C@H](N)[C@@H](O)[C@H](C)O1 | inactive |
| O=C(C[C@H](c1ccccc1)c1c(O)c2ccccc2oc1=O)c1ccccc1 | inactive |
| COc1cc2c(cc1O)C[C@@H]1c3c(cc(O)c(OC)c3-2)CCN1C | inconclusive: 4.5e-09 M |
| COc1ccc(CN2C(=O)CC(=O)NC2=O)cc1 | inactive |

| Structure (SMILES) | max dye-equivalent concentration |
| --- | --- |
| NCC1(c2ccc3c(c2)OCCO3)CCCC1 | inconclusive: 1.4e-09 M |
| Cc1sc2ncn(CC(=O)NCC(=O)N3CCC4(CC3)OCCO4)c(=O)c2c1C | inactive |
| CC1N(O)C2CCCCCC2N1O (stereo unspecified) | inconclusive: 7.3e-09 M |
| Cn1c(=O)c2[nH]cnc2n(C)c1=O.[CH2-][C@H](Cc1cccc2cc(C(=O)O)c(=O)oc12)OC.[Hg].[OH-] | inactive |
| COc1ccc2c(c1O)-c1c(OC)c(OC)cc3c1[C@H](C2)N(C)CC3 | inactive |
| O=C(Cc1ccc(Cl)c(Cl)c1)N1CCCC[C@H]1CN1CCCC1 | active: 6.5e-08 M |
| CCCCCCn1c(O)c(C(C)=NC)c(=O)[nH]c1=O | inconclusive: 2.3e-09 M |
| CCC(=Nc1ccc2c(c1)CCC2)c1c(O)n(C)c(=O)n(C)c1=O | active: 1.9e-08 M |
| O=c1cc(C2CCNCC2)[nH][nH]1 | inconclusive: 5.6e-09 M |
| Nc1ccccc1O.O.O=C(O)[C@H]1[O][Sb][O][C@H]1C(=O)O | inconclusive: 8e-09 M |
| CCC(=NCCCN(C)C)c1c(O)n(-c2ccc(OC)cc2)c(=O)[nH]c1=O | inconclusive: 7.4e-09 M |
| CN1CCc2cc(O)cc3c2[C@H]1Cc1ccc(O)c(O)c1-3 | active: 2.5e-08 M |
| COc1cc2c(cc1OC)-c1c(O)c(OC)cc3c1[C@@H](C2)N(C)CC3 | inconclusive: 4.5e-09 M |
| Ic1ccccc1CN[C@@H]1C2CCN(CC2)[C@H]1C(c1ccccc1)c1ccccc1 | inactive |
| CCC(=Nc1ccc2c(c1)CCC2)c1c(O)n(C2CCCCC2)c(=O)[nH]c1=O | inconclusive: 1.4e-09 M |
| N#Cc1ccccc1Cn1cc(C(=O)c2ccco2)c2ccccc21 | inconclusive: 4.6e-09 M |
| O=c1[nH]c2c(c(=O)n1C1CCCCC1)CCC2 | inactive |
| CO[C@@H]([CH2][Hg])CN1C(=O)c2ccccc2S1(=O)=O.Cn1c(=O)c2nc[nH]c2n(C)c1=O | inactive |
| CC(Oc1ccc(-c2ccccc2)cc1)C(=O)O (stereo unspecified) | inconclusive: 1.9e-09 M |
| CC(C)CNCCc1ccccn1 | inactive |
| CN1C(=O)C(C2(C#N)CCCCC2)C(=O)N(C)C1=O | inconclusive: 3e-09 M |
| C=CCN1CC[C@]23c4c5ccc(O)c4O[C@@H]2C(=O)CC[C@]3(O)[C@H]1C5 | inconclusive: 7e-09 M |

An excerpt of these results, field by field:
CN1CCc2cc(O)cc3c2[C@H]1Cc1ccc(O)c(O)c1-3
  max dye-equivalent concentration: active: 2.5e-08 M
COc1cc2c(cc1OC)-c1c(O)c(OC)cc3c1[C@@H](C2)N(C)CC3
  max dye-equivalent concentration: inconclusive: 4.5e-09 M
Ic1ccccc1CN[C@@H]1C2CCN(CC2)[C@H]1C(c1ccccc1)c1ccccc1
  max dye-equivalent concentration: inactive

More entries follow.

| Structure (SMILES) | max dye-equivalent concentration |
| --- | --- |
| CN1CCc2cc3c(cc2[C@@H]1[C@H]1OC(=O)c2c1ccc1c2OCO1)OCO3 | inconclusive: 2.1e-09 M and inconclusive: 5.6e-09 M |
| CC(N)C(=O)c1ccco1 (stereo unspecified) | inconclusive: 4.1e-09 M |
| O=c1[nH]c(=O)n(Cc2ccco2)c(O)c1C=NC1CC1 | inconclusive: 3.1e-09 M |
| CC(C)(C)P(=O)(c1ccncc1)N1CCCC1 (stereo unspecified) | inconclusive: 1.1e-09 M |
| CCN(CC)CCCN=Cc1c(O)n(CCc2ccc(F)cc2)c(=O)[nH]c1=O | inconclusive: 2.2e-09 M |
| CCN1c2nc3c(C)cccn3c(=O)c2CC2(C(=O)N(C)C(=O)N(C)C2=O)C1C (stereo unspecified) | active: 3.8e-08 M |
| CCN1C[C@@]2(COC(=O)c3ccccc3N3C(=O)C[C@H](C)C3=O)CC[C@H](OC)[C@@]34[C@@H]5CC6[C@@H](OC)C[C@@](O)([C@H]5[C@H]6OC)C(O)([C@@H]13)[C@@H](OC)[C@H]24 | inactive |
| O=C1NC(=O)C2(Cc3c(nc4ccccn4c3=O)N3CCCCCC32)C(=O)N1Cc1ccccc1 (stereo unspecified) | inconclusive: 8.3e-09 M |
| CCn1c(C)c(C(=O)O)c2cc(OC)ccc21 | inconclusive: 1.1e-09 M |
| CCN(CC)C(=O)c1ccc(NC(=O)CSc2nnnn2-c2cc(OC)ccc2OC)cc1 | inconclusive: 1.8e-09 M |
| CCc1cccc2c(C#N)cn(CC(=O)N3CCOCC3)c12 | inconclusive: 1.3e-09 M |
| CCN(CC)C(=O)N[C@H]1C=C2c3cccc4[nH]cc(c34)C[C@@H]2N(C)C1 | active: 4.7e-08 M |
| Cc1sc2ccccc2c1CC1=NCCN1 | inconclusive: 4.1e-09 M |
| OC(COCc1ccc(Cl)cc1)CN1CC=C(c2ccccc2)CC1 (stereo unspecified) | inconclusive: 3.3e-09 M |
| CCCCCC[C@H]1C(=O)O[C@@H](C)[C@H](NC(=O)c2cccc(NC=O)c2O)C(=O)O[C@@H](C)[C@@H]1OC(=O)CC(C)C | inconclusive: 3.5e-09 M |
| CC(=O)N1CN2CN(C(C)=O)CC(C(=O)c3ccc(Br)cc3)(C2)C1 | inconclusive: 1.3e-09 M |
| CCCNc1oc(-c2cccc3ccccc23)nc1C#N | active: 8.2e-07 M |
| CCCCCCn1c(O)c(C=NC2CCCCC2N)c(=O)[nH]c1=O (stereo unspecified) | inactive |
| Cc1nc2c(-c3ccccc3)c(C)nn2c(C)c1CCC(=O)N1CCC2(CC1)OCCO2 | inactive |
| CN1CCN(c2ncc3ncc(=O)n(C)c3n2)CC1 | inconclusive: 5.8e-09 M |
| C[C@@]12CC[C@H]3[C@H](CCC4=CC(=O)CC[C@H]43)[C@H]1CC[C@H]2OC1(O)C(=O)c2ccccc2C1=O | inactive |
| CN[C@@H](C)[C@@H](O)c1ccccc1 | inactive |
